Source: PubChem BioAssay AID652054 (National Center for Advancing Translational Sciences (NCATS), 2013)
The campaign covered roughly 360,000 compounds. About 9,100 (2.5%) were called active. Inconclusive results, whose numbers are uncertain, are shown with a selection of clear calls. Cut-off read from the data, not from the text of the source: active = max response below about -50%; inconclusive = no clear call, values can overlap the other calls; inactive = above that.

Amino acid sequences for entries named in this document (tags omitted).
UniProt P35462, whole entry, looked up: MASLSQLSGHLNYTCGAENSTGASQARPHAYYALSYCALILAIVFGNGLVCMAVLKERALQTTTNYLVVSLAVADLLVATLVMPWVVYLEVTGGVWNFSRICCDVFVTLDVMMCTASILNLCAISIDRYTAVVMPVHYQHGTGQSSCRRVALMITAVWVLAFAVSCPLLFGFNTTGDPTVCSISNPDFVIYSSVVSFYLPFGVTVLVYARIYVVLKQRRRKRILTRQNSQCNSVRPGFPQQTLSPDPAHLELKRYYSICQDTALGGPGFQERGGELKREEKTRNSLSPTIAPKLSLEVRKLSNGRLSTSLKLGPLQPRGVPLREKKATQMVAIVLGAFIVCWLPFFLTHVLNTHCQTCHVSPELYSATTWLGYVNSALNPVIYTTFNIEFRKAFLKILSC

Target: D(3) dopamine receptor (Homo sapiens) (UniProt P35462)
Test: qHTS of D3 Dopamine Receptor Antagonist: qHTS
Conditions: D3R cells, DiscoveRx beta-arrestin luminescence, antagonist mode; active compounds read low
How it was run: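 Cells expressing the human receptor were seeded at 1500 cells/well, incubated overnight at 37 degrees C in 5% CO2, then exposed to library compounds with dopamine controls for 90 minutes at 37 degrees C before luminescent detection.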
% is set by controls: 0 for no effect and ±100 for the full control effect.

SMILES | max response, negative = inhibition
CC(C)c1cc(C(=O)Nc2cccc(Cl)c2)no1 | inconclusive: -42.8%
CCOC(=O)C1(Cc2ccccc2C(F)(F)F)CCN(C2CCN(C(C)=O)CC2)CC1 | inactive: -10.6%
COc1cc(C(=O)N2CCN(C(=O)c3ccccc3)CC2)cc(OC)c1OC | inconclusive: -36.5%
CCn1cc(CN2CCN(CCC(C)C)C(CCO)C2)c2ccccc21 (stereo not given) | inactive: 45.6%
CN1CCN(c2ccc(-c3cccc(NC(=O)COc4ccc(Cl)cc4Cl)c3)nn2)CC1 | inconclusive: -34.9%
COc1ccc(-c2cnc3c(NC(C)=O)cc(-c4cccc(NS(C)(=O)=O)c4)cn23)cc1OC | inactive: 37.1%
CCOc1ccc(CNS(=O)(=O)c2c(C)nc3scc(C)n3c2=O)cc1OC | inconclusive: -31.8%
Cc1cc(C)c(S(=O)(=O)Nc2nccs2)c(C)c1 | inactive: -3.21%
COCCn1c(SCC(=O)Nc2ccc(NC(C)=O)cc2)nc2ccccc2c1=O | inactive: -15.8%
Cc1c(C(=O)NC2CCN(Cc3ccccc3)C2)oc2c(Cl)cccc12 (stereo not given) | active: -100%
COc1ccc(C2Nc3ccccc3C(=O)N2Cc2ccccc2)cc1 (stereo not given) | inconclusive: -36.2%
COc1ccc(S(=O)(=O)N2CCCC(C(=O)N3CCN(Cc4ccccc4)CC3)C2)cc1Cl (stereo not given) | inactive: -21.4%
Cc1nn(-c2ccccc2)c2[nH]c(=O)c(CNCC3CCCO3)cc12 (stereo not given) | active: -82.5%
Fc1ccc(-c2nnc(CN3CCC(c4nc5ccccc5s4)CC3)o2)cc1 | inconclusive: -42.3%
CCCCOc1ccc(C(=O)NCCN2CCC(n3c(=O)[nH]c4ccccc43)CC2)cc1 | active: -59.9%
COc1ccc2[nH]c(=O)c(CNc3ccccc3)cc2c1 | inconclusive: -34.5%
Cc1cc(/C=N/N2CCN(C)CC2)c(C)n1-c1ccccc1F | active: -70.7%
COc1ccc(CN2CCN(Cc3cccc(Oc4ccccc4)c3)CC2)c(OC)c1OC | active: -70.3%
NC(=O)Cn1c(=O)n(CCCC(=O)NC2CCN(Cc3ccccc3)CC2)c(=O)c2ccccc21 | inconclusive: -30.5%
O=C(O)c1ccnc(C(=O)O)c1 | inconclusive: -46.4%
COC(=O)c1cccc(C(=O)Nc2ccc(F)cc2)n1 | active: -62.1%
COc1ccc(NC(=O)c2coc3ccccc23)cc1OC | active: -66.7%
CSc1ccc(C(=S)N2CCCC2)cc1 | inconclusive: -36.1%

SMILES | max response, negative = inhibition
COC(=O)N/N=C/c1cc([N+](=O)[O-])cc(Br)c1O | active: -97.9%
O=C(NCCN1CCC(n2c(=O)[nH]c3ccccc32)CC1)c1ccc(F)cc1 | active: -79.2%
COc1ccc(C(=O)NN=C2CCCC2)cc1 | inconclusive: -31.7%
O=C1CSc2ccc(C(=O)N3CCCCC3)cc2N1 | inactive: -3.46%
COc1ccc(C2(c3ccc(OC)cc3)NC(=O)N(CC(=O)NC(C)C)C2=O)cc1 | inconclusive: -33.5%
O=C(COc1ccc2c(-c3ccccc3)cc(=O)oc2c1)NCCCn1ccnc1 | inconclusive: -38.8%
COc1ccc(OCC(=O)OCCN(C)C)cc1 | inconclusive: -39.8%
CCOC(=O)[C@]12CCC=C1N(Cc1cccc3ccccc13)C(=O)[C@H](CC(=O)NCCCCc1ccccc1)C2 | inactive: -8.55%
O=C(NCc1cccnc1)c1ccc(S(=O)(=O)N2CCCCCC2)cc1 | inactive: -9.19%
COc1c(Br)cc(Br)cc1/C=N/n1c(C)nnc1C | inconclusive: -37.7%
CC1CN(C)C(C)c2c1oc1ccc(N)cc21 (stereo not given) | inconclusive: -39.3%
O=C(CCS(=O)(=O)c1ccccc1)N(CCCN1CCOCC1)c1nc2ccccc2s1 | inconclusive: -33%
O=[N+]([O-])c1ccccc1-c1ccc(CN2CCN(c3ccccc3)CC2)o1 | active: -57.7%
Cc1ccccc1NC(=O)C1CCN(c2cnccn2)CC1 | inconclusive: -31.5%
CC(C)Oc1ccc(C(=O)Nc2ccc(N(C)C)cc2)cc1 | inconclusive: -45.9%
COCc1nnc(NC(=O)c2ccc(S(=O)(=O)N(C)c3ccccc3)cc2)o1 | active: -55.9%
O=C(Nc1ccc(N2CCCC2)cc1)c1cccc(F)c1 | inconclusive: -41.6%
CC1(CCC(=O)N2CCCC(N3CCN(c4cccc(C(F)(F)F)c4)CC3)C2)CC1 (stereo not given) | active: -66.2%
CC(OC(=O)c1ccncc1)C(=O)Nc1ccc([N+](=O)[O-])cc1Cl (stereo not given) | inactive: 20.2%
CC1CCC(NC(=O)CNC(=O)c2ccc3ccccc3c2)CC1 (stereo not given) | active: -70%
CS(=O)(=O)N1CCN(c2ccc(NC(=O)c3ccc([N+](=O)[O-])o3)cc2)CC1 | inconclusive: -42.2%
N#CC1(NC(=O)Cn2ncc(Cl)c(Cl)c2=O)CCCCC1 | inactive: 0%
Brc1cccc(OCCN2CCc3ccccc3C2)c1 | active: -73.2%

SMILES | max response, negative = inhibition
O=c1c2c([N+](=O)[O-])cc([N+](=O)[O-])cc2sn1Cc1ccccc1 | inconclusive: -32.3%
Cc1cc(OC(C)C(=O)NC2CCN(Cc3ccccc3)CC2)c2c(C)cc(=O)oc2c1 (stereo not given) | active: -62%
CCc1noc(C)c1C(=O)N1CCN(S(=O)(=O)c2ccc(Br)cc2)CC1 | inactive: 6.29%
Cc1ccc(C(=O)Nc2nnc(NC(=S)Nc3ccccc3)s2)cc1 | inconclusive: -30.5%
CN=C1S/C(=C\c2ccc(N3CCCC3)c(F)c2)C(=O)N1C | inactive: 8.29%
COc1cc2cc(C)nc(Cc3cccc4ccccc34)c2cc1OC | inconclusive: -37.2%
COc1ccc(S(=O)(=O)N/N=C\c2ccc(OC)c(COc3ccc(C)cc3[N+](=O)[O-])c2)cc1 | active: -59.9%
c1cc(CN2CCCCC2)cc(OCCCNc2nc3ccccc3s2)c1 | active: -75%
COc1ccc(/C=C/C(=O)c2ccc([N+](=O)[O-])o2)cc1OC | inconclusive: -46.9%
COc1ccc(OC)c(C(=O)/C=C/c2cccnc2)c1 | inconclusive: -39.2%
c1ccc(CNc2nnnn2-c2ccccc2)cc1 | inactive: 19.8%
CN(CC(=O)O)Cc1nc2ccccc2[nH]1 | inconclusive: -40%
O=C1NC(c2cc(Cl)cc([N+](=O)[O-])c2O)Nc2ccccc21 (stereo not given) | inconclusive: -35.5%
NC1=NC(=O)C(Cc2cc(Cl)ccc2Cl)S1 (stereo not given) | inconclusive: -38.9%
CN(CCCCOc1ccc(F)cc1)Cc1ccccc1 | active: -82.6%
CCCCNS(=O)(=O)c1ccc2nc(SCC(=O)Nc3sccc3C#N)[nH]c2c1 | inconclusive: -38.4%
Cc1ccccc1C1C(C#N)=C2N=C(N)c3c(sc4c3CCCCC4)N2C2=C1C(=O)CC(C)(C)C2 (stereo not given) | active: -60.8%
CCC(c1nnnn1CCc1ccccc1)N1CCN(C(=O)c2ccco2)CC1 (stereo not given) | inconclusive: -37.1%
C=CCN(c1ccccc1)S(=O)(=O)c1cccc(C(=O)NC2CCN(Cc3ccccc3)CC2)c1 | active: -79%
CN(C(=O)Cc1c[nH]c2ccccc12)C(C(=O)Nc1ccc2c(c1)OCO2)c1ccccc1 (stereo not given) | inactive: 36.2%
Oc1c(CN2CCN(c3ccccc3)CC2)cc(Br)c2cccnc12 | inconclusive: -42.3%
Cc1ccc(OCC(O)CN2CCN(CC(O)COc3ccc(C)cc3Cl)CC2)c(Cl)c1 (stereo not given) | active: -59.6%
CC(C)(C)[C@H]1COC(=O)[C@H](Cc2ccc(F)cc2)CC/C=C/C[C@@H](CC(=O)N[C@H](CO)Cc2ccccc2)C(=O)N1 | inactive: 1.3%

SMILES | max response, negative = inhibition
Cn1c(NC(=O)COc2ccccc2)cc(=O)n(C)c1=O | inconclusive: -46.1%
COc1ccc(C(=O)CCN2CCN(c3ccccc3F)CC2)cc1 | active: -98.9%
O=C(c1ccc(F)cc1)N1CCN(Cc2ccccc2Br)CC1 | inconclusive: -42.6%
Cc1nc(N2CCN(c3ccccn3)CC2)c2c(C)c(C(=O)Nc3c(F)cc(F)cc3Br)sc2n1 | inactive: 39.8%
O=C(CCSCCC(=O)NCc1ccco1)NCc1ccco1 | inconclusive: -41.7%
COc1ccccc1NC(=O)N[C@@H](Cc1c[nH]c2ccccc12)C(=O)NN | inactive: 9.9%
N#Cc1ccccc1Oc1ccccc1C=O | inactive: -2.67%
CCC1Nc2ncnc(N3CCc4ccccc4C3)c2N(Cc2ccc(Br)cc2)C1=O (stereo not given) | active: -83.8%
CCOC(=O)c1c(N2C(=O)Nc3cc(Cl)c(Cl)cc3N2O)sc2c1CCCCC2 | inconclusive: -36.2%
Cc1ccc(NC(=O)[C@H](C)NC(=O)C2CCN(C(=O)[C@@H](N)C(C)C)CC2)cc1 | inactive: 10.5%
Nc1nc2ccc([N+](=O)[O-])c(N)c2s1 | inconclusive: -40.9%
CC(C)CCn1c(=S)[nH]c2ncccc2c1=O | inconclusive: -37%
CC(=O)c1cccc(NC(=O)CSCc2ccccc2)c1 | active: -78.7%
CN(C)C=Nc1ccc([N+](=O)[O-])c2ccccc12 | inactive: -14.2%
CCn1c(CNc2cccc(Cl)c2)nnc1SCc1ccccc1 | inconclusive: -39.8%
CCN(CCN(C)C)C(=O)C1CCN(S(=O)(=O)c2c(C)noc2/C=C/c2ccccc2F)CC1 | active: -54.1%
CC1CC(C)CN(CCCNC(=O)c2ccc3c(c2)NC(=O)C(N2CCCCC2)S3)C1 (stereo not given) | inconclusive: -46.7%
COc1ccc(OC)c(NC(=S)N(CCc2c(C)[nH]c3ccccc23)Cc2cccs2)c1 | inactive: -11.7%
Cc1cc(C(=O)CN2C(=O)NC3(CCCc4ccccc43)C2=O)c(C)n1Cc1cccs1 (stereo not given) | inconclusive: -44.4%
CCOC(=O)C1CCN(S(=O)(=O)CCNC(=O)c2ccccc2)CC1 | inactive: 11.3%
COc1ccc(CN2C[C@H]3CCCN3c3cc(Br)ccc3S2(=O)=O)cc1 | inconclusive: -44.7%

In the list so far, two contain a CF3 group.
SMILES | max response, negative = inhibition
CCOC(=O)C1(Cc2ccccc2C(F)(F)F)CCN(C2CCN(C(C)=O)CC2)CC1 | inactive: -10.6%
CC1(CCC(=O)N2CCCC(N3CCN(c4cccc(C(F)(F)F)c4)CC3)C2)CC1 (stereo not given) | active: -66.2%
